Source: the supplement of paper PMC12823440, “Inhibitors supercharge kinase turnover through native proteolytic circuits” (Nature, 2025)
Where a name gives a salt, the structure may show the parent alone. The list shows a part of the results. Hit calls seldom repeat between salt and free forms of one compound.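 In K562 cells expressing nanoluciferase-fused kinases, luminescence was recorded at 4 h intervals between 2 and 18 h, normalized as percent of control with DMSO at 100% and a positive control at 0%. A significant (2 sigma) signal drop marks a time point as decreased. The authors' rule for a hit is not shown and takes in more than the number of time points.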

Sequences of proteins named here, by UniProt entry; tags and fusion partners are left off. A change or cut given only in a name is not applied to a line headed by its entry.
UniProt Q8IWU2: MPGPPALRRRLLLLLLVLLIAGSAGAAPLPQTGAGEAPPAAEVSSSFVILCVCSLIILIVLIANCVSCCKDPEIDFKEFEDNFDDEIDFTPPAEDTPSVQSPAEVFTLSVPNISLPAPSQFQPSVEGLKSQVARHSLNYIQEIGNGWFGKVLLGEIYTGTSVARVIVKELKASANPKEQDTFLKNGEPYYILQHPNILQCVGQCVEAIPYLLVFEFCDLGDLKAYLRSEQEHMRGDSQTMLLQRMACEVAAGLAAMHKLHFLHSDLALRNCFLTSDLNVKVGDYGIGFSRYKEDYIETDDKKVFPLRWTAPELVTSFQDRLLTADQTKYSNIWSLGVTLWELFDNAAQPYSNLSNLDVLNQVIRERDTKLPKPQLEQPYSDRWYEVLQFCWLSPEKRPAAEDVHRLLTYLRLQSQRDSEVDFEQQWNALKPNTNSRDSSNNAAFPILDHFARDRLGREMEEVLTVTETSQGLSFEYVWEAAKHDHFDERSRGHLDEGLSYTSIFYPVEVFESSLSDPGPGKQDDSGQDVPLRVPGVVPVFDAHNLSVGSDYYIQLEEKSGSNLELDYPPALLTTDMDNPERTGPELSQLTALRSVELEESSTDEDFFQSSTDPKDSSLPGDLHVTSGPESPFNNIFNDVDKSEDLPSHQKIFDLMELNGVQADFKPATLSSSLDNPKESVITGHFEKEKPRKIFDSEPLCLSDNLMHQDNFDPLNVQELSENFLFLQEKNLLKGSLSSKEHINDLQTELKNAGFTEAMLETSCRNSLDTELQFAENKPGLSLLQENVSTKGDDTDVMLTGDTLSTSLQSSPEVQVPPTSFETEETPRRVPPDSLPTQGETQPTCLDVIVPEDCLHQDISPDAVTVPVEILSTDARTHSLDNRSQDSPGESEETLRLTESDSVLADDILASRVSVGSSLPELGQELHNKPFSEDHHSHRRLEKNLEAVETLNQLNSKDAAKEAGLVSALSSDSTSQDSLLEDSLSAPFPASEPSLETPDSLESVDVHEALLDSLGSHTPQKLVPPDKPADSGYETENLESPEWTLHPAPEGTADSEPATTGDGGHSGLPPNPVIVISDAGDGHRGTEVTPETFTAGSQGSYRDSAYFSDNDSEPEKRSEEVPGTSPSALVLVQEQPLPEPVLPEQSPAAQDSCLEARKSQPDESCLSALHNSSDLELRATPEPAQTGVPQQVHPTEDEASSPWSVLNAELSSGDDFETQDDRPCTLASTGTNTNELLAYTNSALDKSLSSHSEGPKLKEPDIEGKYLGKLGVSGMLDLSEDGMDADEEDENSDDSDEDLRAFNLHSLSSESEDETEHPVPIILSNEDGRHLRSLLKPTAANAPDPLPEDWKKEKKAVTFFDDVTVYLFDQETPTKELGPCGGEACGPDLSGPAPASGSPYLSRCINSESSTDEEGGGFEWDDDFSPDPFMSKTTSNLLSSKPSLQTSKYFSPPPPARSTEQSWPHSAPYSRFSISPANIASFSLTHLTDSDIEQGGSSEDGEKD
UniProt P07948: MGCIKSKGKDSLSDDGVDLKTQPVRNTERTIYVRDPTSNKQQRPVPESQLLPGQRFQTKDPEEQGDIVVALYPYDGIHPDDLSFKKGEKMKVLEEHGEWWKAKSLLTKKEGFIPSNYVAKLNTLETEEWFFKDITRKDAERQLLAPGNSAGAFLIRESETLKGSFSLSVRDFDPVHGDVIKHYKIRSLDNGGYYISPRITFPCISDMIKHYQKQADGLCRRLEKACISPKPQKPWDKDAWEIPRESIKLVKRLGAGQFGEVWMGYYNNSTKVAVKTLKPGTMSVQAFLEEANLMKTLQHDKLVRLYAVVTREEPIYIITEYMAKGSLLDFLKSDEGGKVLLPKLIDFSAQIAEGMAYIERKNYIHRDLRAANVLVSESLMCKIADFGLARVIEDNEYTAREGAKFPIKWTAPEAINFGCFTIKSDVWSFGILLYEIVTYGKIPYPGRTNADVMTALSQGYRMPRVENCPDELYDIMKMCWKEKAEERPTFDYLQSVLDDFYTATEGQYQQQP
UniProt Q12851: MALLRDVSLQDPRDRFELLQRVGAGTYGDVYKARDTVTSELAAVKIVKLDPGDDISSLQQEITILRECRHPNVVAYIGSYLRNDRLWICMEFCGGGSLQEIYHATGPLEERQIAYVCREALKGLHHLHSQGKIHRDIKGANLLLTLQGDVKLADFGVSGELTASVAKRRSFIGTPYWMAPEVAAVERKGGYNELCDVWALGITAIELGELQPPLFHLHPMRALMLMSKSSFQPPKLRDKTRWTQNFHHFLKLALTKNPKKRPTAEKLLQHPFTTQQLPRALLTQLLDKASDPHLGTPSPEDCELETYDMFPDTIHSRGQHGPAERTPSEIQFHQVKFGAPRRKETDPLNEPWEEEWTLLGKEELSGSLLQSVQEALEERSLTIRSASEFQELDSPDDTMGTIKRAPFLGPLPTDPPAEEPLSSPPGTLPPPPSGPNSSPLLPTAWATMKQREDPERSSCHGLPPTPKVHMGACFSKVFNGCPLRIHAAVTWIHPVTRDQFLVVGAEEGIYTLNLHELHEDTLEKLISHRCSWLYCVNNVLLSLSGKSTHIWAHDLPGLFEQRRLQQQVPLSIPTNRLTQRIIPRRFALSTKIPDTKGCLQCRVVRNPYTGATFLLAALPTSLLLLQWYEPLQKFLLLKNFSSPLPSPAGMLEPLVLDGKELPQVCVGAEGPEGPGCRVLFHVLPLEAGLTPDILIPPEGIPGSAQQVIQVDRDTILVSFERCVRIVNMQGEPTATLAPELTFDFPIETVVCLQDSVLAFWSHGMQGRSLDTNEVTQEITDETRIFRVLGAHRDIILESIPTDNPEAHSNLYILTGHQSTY
UniProt P28482, whole entry: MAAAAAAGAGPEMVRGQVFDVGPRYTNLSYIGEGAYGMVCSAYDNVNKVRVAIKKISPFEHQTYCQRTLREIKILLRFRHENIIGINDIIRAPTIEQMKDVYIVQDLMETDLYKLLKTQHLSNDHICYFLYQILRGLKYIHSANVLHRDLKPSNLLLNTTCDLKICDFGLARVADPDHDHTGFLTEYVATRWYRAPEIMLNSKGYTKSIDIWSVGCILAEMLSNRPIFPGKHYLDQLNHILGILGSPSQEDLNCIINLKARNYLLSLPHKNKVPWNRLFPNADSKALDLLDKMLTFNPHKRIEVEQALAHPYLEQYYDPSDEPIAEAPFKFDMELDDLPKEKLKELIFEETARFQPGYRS
UniProt P31152, whole entry: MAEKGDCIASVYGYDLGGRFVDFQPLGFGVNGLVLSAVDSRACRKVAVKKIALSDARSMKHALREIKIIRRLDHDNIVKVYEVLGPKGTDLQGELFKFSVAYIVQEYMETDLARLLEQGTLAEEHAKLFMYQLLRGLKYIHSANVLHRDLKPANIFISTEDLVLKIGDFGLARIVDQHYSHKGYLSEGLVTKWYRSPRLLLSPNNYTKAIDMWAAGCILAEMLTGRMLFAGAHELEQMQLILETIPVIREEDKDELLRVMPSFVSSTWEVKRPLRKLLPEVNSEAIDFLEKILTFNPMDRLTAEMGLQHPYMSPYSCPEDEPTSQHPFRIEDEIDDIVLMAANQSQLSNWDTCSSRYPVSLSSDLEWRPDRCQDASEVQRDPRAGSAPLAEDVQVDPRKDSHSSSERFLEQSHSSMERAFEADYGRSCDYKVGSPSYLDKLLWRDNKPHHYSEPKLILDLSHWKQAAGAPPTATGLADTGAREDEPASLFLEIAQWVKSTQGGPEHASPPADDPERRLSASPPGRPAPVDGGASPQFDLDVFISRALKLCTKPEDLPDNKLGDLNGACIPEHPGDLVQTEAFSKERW
UniProt P49137, whole entry, looked up: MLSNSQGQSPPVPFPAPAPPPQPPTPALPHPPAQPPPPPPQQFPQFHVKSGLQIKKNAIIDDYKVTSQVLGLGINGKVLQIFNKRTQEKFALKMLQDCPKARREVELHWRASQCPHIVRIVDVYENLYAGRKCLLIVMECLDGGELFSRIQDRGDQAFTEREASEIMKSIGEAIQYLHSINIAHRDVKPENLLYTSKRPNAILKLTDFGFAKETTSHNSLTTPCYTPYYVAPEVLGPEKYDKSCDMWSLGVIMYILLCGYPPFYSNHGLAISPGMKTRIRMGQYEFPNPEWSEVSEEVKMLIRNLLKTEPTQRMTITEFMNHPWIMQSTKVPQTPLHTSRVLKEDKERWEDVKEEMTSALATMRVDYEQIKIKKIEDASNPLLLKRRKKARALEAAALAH
UniProt Q9BUB5: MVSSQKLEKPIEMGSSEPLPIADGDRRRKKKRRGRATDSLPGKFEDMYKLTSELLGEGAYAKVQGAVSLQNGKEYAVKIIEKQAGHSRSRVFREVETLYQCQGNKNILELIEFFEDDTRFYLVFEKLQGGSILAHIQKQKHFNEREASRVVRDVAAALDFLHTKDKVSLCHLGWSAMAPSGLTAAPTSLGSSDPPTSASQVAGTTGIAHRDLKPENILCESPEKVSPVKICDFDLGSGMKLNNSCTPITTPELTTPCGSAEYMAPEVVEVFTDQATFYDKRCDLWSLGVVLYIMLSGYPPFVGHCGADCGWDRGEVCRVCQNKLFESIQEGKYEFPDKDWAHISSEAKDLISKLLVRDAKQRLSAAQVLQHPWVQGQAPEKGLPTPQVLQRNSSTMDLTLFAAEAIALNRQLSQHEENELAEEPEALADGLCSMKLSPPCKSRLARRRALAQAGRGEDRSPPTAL
UniProt Q16620, whole entry, looked up: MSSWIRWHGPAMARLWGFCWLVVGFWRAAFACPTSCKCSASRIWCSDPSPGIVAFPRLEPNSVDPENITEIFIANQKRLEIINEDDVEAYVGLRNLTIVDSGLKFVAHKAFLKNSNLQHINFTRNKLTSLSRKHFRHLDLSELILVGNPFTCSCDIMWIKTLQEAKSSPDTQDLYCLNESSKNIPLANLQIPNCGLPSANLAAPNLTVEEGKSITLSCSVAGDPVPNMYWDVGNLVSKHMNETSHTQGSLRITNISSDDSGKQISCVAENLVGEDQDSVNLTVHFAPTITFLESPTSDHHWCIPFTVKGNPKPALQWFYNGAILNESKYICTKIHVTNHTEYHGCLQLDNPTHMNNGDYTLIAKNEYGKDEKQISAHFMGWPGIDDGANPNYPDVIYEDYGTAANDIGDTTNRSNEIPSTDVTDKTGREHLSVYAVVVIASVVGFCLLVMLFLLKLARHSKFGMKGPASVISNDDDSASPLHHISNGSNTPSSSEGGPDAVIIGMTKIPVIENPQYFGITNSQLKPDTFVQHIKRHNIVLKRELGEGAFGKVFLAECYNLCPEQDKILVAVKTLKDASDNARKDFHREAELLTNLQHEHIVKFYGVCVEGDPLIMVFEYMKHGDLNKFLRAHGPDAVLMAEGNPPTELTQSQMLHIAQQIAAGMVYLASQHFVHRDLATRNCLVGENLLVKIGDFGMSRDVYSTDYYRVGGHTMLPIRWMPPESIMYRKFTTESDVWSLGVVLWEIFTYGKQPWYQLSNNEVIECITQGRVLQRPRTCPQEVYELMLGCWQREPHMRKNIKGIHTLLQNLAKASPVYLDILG

Legend:
Test in all cases: number of time points (of 5) at which kinase-Nluc abundance scored as decreased, DMSO-normalised (count); higher = more persistent destabilization
Settings in all cases: K562; 2-18 h
[1] = target: LMTK2 (UniProt Q8IWU2)
[2] = target: LYN (UniProt P07948)
[3] = target: MAP2K1 (UniProt Q02750)
[4] = target: MAP2K2 (UniProt P36507)
[5] = target: MAP4K2 (UniProt Q12851)
[6] = target: MAPK1 (UniProt P28482)
[7] = target: MAPK4 (UniProt P31152)
[8] = target: MAPKAPK2 (UniProt P49137)
[9] = target: MKNK1 (UniProt Q9BUB5)
[10] = target: NTRK2 (UniProt Q16620)

| SMILES | number of time points [1] | number of time points [2] | number of time points [3] | number of time points [4] | number of time points [5] | number of time points [6] | number of time points [7] | number of time points [8] | number of time points [9] | number of time points [10] |
| --- | --- | --- | --- | --- | --- | --- | --- | --- | --- | --- |
| CN1CCN(C(=O)c2ccc(-c3ccc4c(C=O)c(O)ccc4c3)s2)CC1 (2.5 µM) | 0 | 0 | 0 | 0 | 0 | 0 | 0 | 0 | 0 | 0 |
| CCn1cc(-c2ccnc3[nH]c(-c4cccc(CN(C)C)c4)cc23)c(-c2ccc(NC(=O)N(C)C)cc2)n1 (2.5 µM) | 0 | 0 | 0 | 0 | 0 | 0 | 0 | 0 | 0 | 0 |
| Cc1nc(N)sc1-c1ccnc(Nc2ccc(N3CCOCC3)cc2)n1 (10 µM) | 0 | 0 | 0 | 0 | 0 | 0 | 0 | 0 | 0 | 0 |
| O=c1cc(-c2ccccc2)oc2c(O)c(O)ccc12 [7,8-Dihydroxyflavone] (10 µM) | 0 | 0 | 0 | 0 | 0 | 0 | 0 | 0 | 0 | 0 |
| CCN1CCN(Cc2ccc(C(=O)Nc3ccc(C)c(Oc4ccc5c(c4)CC(=O)N5)c3)cc2C(F)(F)F)CC1 (2.5 µM) | 0 | 0 | 0 | 0 | 0 | 0 | 1 | 0 | 2 | 1 |
| Cc1c(Cn2c(C)nc3c(C(=O)O)cc(N4CCOCC4)cc32)cccc1C(F)(F)F (10 µM) | 0 | 0 | 0 | 0 | 0 | 0 | 0 |  | 0 | 0 |
| Cc1cccc([C@@H](CO)NC(=O)[C@@H](C)N2Cc3ccc(-c4nc(NC5CCOCC5)ncc4Cl)cc3C2=O)c1 [ERK1/2 inhibitor 1] (10 µM) | 0 | 0 | 0 | 0 | 0 |  | 0 | 0 | 0 | 0 |
| COc1cc(F)cc([C@@H](CO)NC(=O)[C@@H](C)N2Cc3ccc(-c4nc(NC5CCOCC5)ncc4Cl)cc3C2=O)c1 [ERK1/2 inhibitor 2] (10 µM) | 0 | 0 | 0 | 0 | 0 |  | 0 | 0 | 0 | 2 |
| O=C(Nc1cc(C(F)(F)F)ccc1N1CCN(Cc2ccccn2)CC1)c1ccc(-c2ccncc2)o1 (10 µM) | 0 | 0 | 0 | 0 | 0 | 0 | 0 | 0 | 0 | 0 |
| Cc1ccc(S(=O)(=O)Nc2nc3ccccc3nc2Nc2ccc3nsnc3c2)cc1 [Pilaralisib analogue] (10 µM) | 0 | 0 | 0 | 0 | 0 | 0 | 0 | 0 |  | 1 |
| O=c1oc2ccccc2c(O)c1Cc1c(O)c2ccccc2oc1=O [Dicoumarol] (10 µM) | 0 | 0 | 0 | 0 | 0 |  | 0 | 0 | 0 | 0 |
| Cn1c(=O)n(-c2ccc(C(C)(C)C#N)cc2)c2c3cc(-c4cnc5ccccc5c4)ccc3ncc21 [Dactolisib (Tosylate)] (10 µM) | 3 | 1 | 0 | 0 | 0 | 0 | 0 | 0 | 4 | 0 |
| Cc1c(C(=O)N2CCOc3ccc(-c4ccc(N)nc4)cc3C2)ccc(S(C)(=O)=O)c1F (10 µM) | 0 | 0 | 0 | 0 | 0 | 0 | 0 | 0 | 0 | 0 |
| CN1CCN(c2ccc(C(=O)Nc3n[nH]c4ccc(Cc5cc(F)cc(F)c5)cc34)c(NC3CCOCC3)c2)CC1 [Entrectinib] (2.5 µM) | 0 | 0 | 0 | 0 | 0 | 0 | 0 | 0 | 0 | 0 |
| COc1cc2ncn(-c3cc(OCc4ccccc4C(F)(F)F)c(C(N)=O)s3)c2cc1OC (10 µM) | 0 | 0 | 0 | 0 | 0 | 0 | 0 | 0 | 0 | 0 |
| CCN(CC)CCCCNc1ncc2cc(-c3c(Cl)cccc3Cl)c(NC(=O)NC(C)(C)C)nc2n1 (2.5 µM) | 0 | 0 | 0 | 0 | 0 | 0 | 1 | 0 | 0 | 0 |
| Cc1ccc2c(Nc3cccc(OC(F)(F)F)c3)nccc2c1Nc1ncccc1-c1ncnc2[nH]cnc12 (10 µM) | 0 | 0 | 0 | 0 | 0 | 0 | 0 | 0 | 0 | 0 |
| Cc1cc(C(=O)Nc2cccc(C(=O)Nc3cccc(C(F)(F)F)c3)c2)on1 (10 µM) | 0 | 0 | 0 | 0 | 0 | 0 | 0 | 0 | 0 | 0 |
| COc1c(CC=C(C)C)c(O)cc2oc(=O)c(-c3ccc(O)cc3O)cc12 [Glycycoumarin] (10 µM) | 0 | 0 | 0 | 0 | 0 | 0 | 0 | 0 | 0 | 0 |
| CC(C)C(=O)Nc1ncc(-c2cc(C(F)F)nn2-c2c(Cl)cccc2Cl)s1 (10 µM) | 0 | 0 | 0 | 0 | 0 | 0 | 0 | 0 | 0 | 0 |

| SMILES | number of time points [1] | number of time points [2] | number of time points [3] | number of time points [4] | number of time points [5] | number of time points [6] | number of time points [7] | number of time points [8] | number of time points [9] | number of time points [10] |
| --- | --- | --- | --- | --- | --- | --- | --- | --- | --- | --- |
| CN1CCN(c2ccc(Nc3cc(-c4cccc(-n5ccc6cc(C7CC7)cc(F)c6c5=O)c4CO)cn(C)c3=O)nc2)CC1 (2.5 µM) | 0 | 0 | 0 | 0 | 0 | 0 | 0 | 0 | 0 | 0 |
| Cc1cc(C)c(/C=C2\C(=O)Nc3ccccc32)[nH]1 [Semaxinib] (10 µM) | 0 | 0 | 0 | 0 | 0 | 0 | 0 | 0 | 0 | 0 |
| NC(=O)c1ccc(-c2nc(-c3ccccn3)c(-c3ccc4c(c3)OCO4)[nH]2)cc1 (10 µM) | 0 | 0 | 0 | 0 | 0 | 0 | 0 | 0 | 0 | 0 |
| Cc1ccc(F)c(NC(=O)Nc2ccc(-c3cccc4[nH]nc(N)c34)cc2)c1 [Linifanib] (2.5 µM) | 0 | 5 | 0 | 0 | 0 | 0 | 0 | 0 | 0 | 0 |
| CC1(C)CC=C(c2nc(C3CC(C)(C)OC(C)(C)C3)ccc2NC(=O)c2nc(C#N)c[nH]2)CC1 [Edicotinib] (2.5 µM) | 0 | 0 | 0 | 0 | 0 | 0 | 0 | 0 | 0 | 0 |
| NS(=O)(=O)c1ccc(Nc2nc(OCC3CCCCC3)c3[nH]cnc3n2)cc1 (10 µM) | 0 | 0 | 0 | 0 | 0 | 0 | 0 | 0 | 0 | 0 |
| O=C1NCCc2[nH]c(-c3ccnc(-c4cnc5ccccc5c4)c3)cc21 (10 µM) | 0 | 0 | 0 | 0 | 0 | 0 | 0 |  | 0 | 0 |
| CCCS(=O)(=O)Nc1ccc(F)c(C(=O)c2c[nH]c3ncc(Cl)cc23)c1F (10 µM) | 0 | 0 | 0 | 0 | 0 | 0 | 0 | 0 | 1 | 0 |
| C=CC(=O)N1C[C@H](Nc2ncnc3[nH]ccc23)CC[C@@H]1C [Ritlecitinib] (10 µM) | 0 | 0 | 0 | 0 | 0 | 0 | 0 | 0 | 0 | 0 |
| COc1cc(OC)cc(N(CCNC(C)C)c2ccc3ncc(-c4cnn(C)c4)nc3c2)c1 [Erdafitinib] (2.5 µM) | 0 | 0 | 0 | 0 | 0 | 0 | 0 | 0 | 0 | 0 |
| CC(C)c1cnn2c(NCc3ccccc3)cc(NC[C@H]3CCNC[C@@H]3O)nc12 [Samuraciclib (hydrochloride)] (10 µM) | 0 | 0 | 0 | 0 | 0 | 0 | 0 | 0 | 0 | 0 |
| Nc1nc(OCC2CCCCC2)c2[nH]cnc2n1 (10 µM) | 0 | 0 | 0 | 0 | 0 | 0 | 0 | 0 | 0 | 0 |
| O=C(NOC[C@H](O)CO)c1ccc(F)c(F)c1Nc1ccc(I)cc1F (2.5 µM) | 0 | 0 |  | 0 | 0 | 0 | 0 | 0 | 0 | 0 |
| CCOc1ccn(-c2ccc(F)cc2)c(=O)c1C(=O)Nc1ccc(Oc2ccnc(N)c2Cl)c(F)c1 (10 µM) | 0 | 0 | 0 | 0 | 0 | 0 | 0 | 0 | 0 | 1 |
| C/C=C(/C)C(=O)O[C@H]1Cc2cc3ccc(=O)oc3cc2OC1(C)C [Decursinol angelate] (10 µM) | 0 | 0 | 0 | 0 | 0 | 0 | 0 | 0 | 0 | 0 |
| CC[C@H](CO)Nc1nc(NCc2ccccc2)c2ncn(C(C)C)c2n1 [Seliciclib] (10 µM) | 0 | 0 | 0 | 0 | 0 | 0 | 0 | 0 | 0 | 0 |
| CC(C)(C)S(=O)(=O)c1cc2c(Nc3ccc4scnc4c3)ncnc2cc1OCCO (2.5 µM) | 0 | 0 | 0 | 0 | 0 | 0 | 0 | 0 | 0 | 0 |
| CC(C)CC(=O)Nc1n[nH]c2c1CN(C(=O)C1CCN(C)CC1)C2(C)C (2.5 µM) | 2 | 0 | 0 | 0 | 0 | 0 | 0 | 0 | 0 | 3 |
| C[C@H](CN(C)C)Oc1nc(Nc2cc3cccc(Cl)c3cn2)cnc1C#N (10 µM) | 0 | 0 | 0 | 0 | 0 | 0 | 0 | 0 | 0 | 0 |

3 structures already listed, ordered by SMILES length, descending.

| SMILES | number of time points [1] | number of time points [2] | number of time points [3] | number of time points [4] | number of time points [5] | number of time points [6] | number of time points [7] | number of time points [8] | number of time points [9] | number of time points [10] |
| --- | --- | --- | --- | --- | --- | --- | --- | --- | --- | --- |
| COc1cc(OC)cc(N(CCNC(C)C)c2ccc3ncc(-c4cnn(C)c4)nc3c2)c1 [Erdafitinib] (2.5 µM) | 0 | 0 | 0 | 0 | 0 | 0 | 0 | 0 | 0 | 0 |
| CC(C)(C)S(=O)(=O)c1cc2c(Nc3ccc4scnc4c3)ncnc2cc1OCCO (2.5 µM) | 0 | 0 | 0 | 0 | 0 | 0 | 0 | 0 | 0 | 0 |
| CC[C@H](CO)Nc1nc(NCc2ccccc2)c2ncn(C(C)C)c2n1 [Seliciclib] (10 µM) | 0 | 0 | 0 | 0 | 0 | 0 | 0 | 0 | 0 | 0 |
